Tested on: modified form of human P45017α
Assay: UV-VIS difference spectroscopy of complexes with modified human P45017α
Type: binding
Conditions: 20 μM compound; P450 concentration 1.8 μM

SMILES | Peak position of the Soret maximum of the complex [nm] | Type of difference spectrum induced
C[C@]12CC[C@H](O)CC1=CC[C@@H]1[C@@H]2CC[C@]2(C)C(n3cncn3)=CC[C@@H]12 [Compound 6, 3β-hydroxy-17-(1H, 1,2,4-triazol-1-yl)androsta-5,16-diene] | 422 | Type II difference spectrum
C[C@]12CC[C@H](O)CC1=CC[C@@H]1[C@@H]2CC[C@]2(C)C(n3ccnc3)=CC[C@@H]12 [Compound 11, 3β-hydroxy-17-(1H-imidazol-1-yl)androsta-5,16-diene] | 426 | Type II difference spectrum
